The values below come from patent publication US10921327B2, “Probes for quantitative imaging of thiols in various environments” (Baylor College of Medicine, priority 2014, dated 2021).

Each structure is given as a SMILES string.

One series deals with HeLa cells. The series is described as follows: Live imaging based quantification of GSH levels, HeLa. It is filed as cell-based.
The test system of another series is 3T3-L1 cells. The series is described as follows: Live imaging based quantification of GSH levels, 3T3-L1. Type of series: cell-based.

Turning to `CCN(CC)c1ccc2cc(/C=C/C(=O)c3ccc(C(=O)O)cc3Br)c(=O)oc2c1` [TQ Green], the “Imaging Based CGSH” value in the series with HeLa cells turned out to be 4.6 ± 0.8 mM; in the series on 3T3-L1 cells it was 4.6 ± 0.9 mM.
